Results published in the supplement of paper PMC10849652.
Some of the results follow.

By UniProt entry, the sequences of proteins in these tests, tags left out. Where a name states a change or a piece, a line headed by the entry shows the natural chain unless it says otherwise.
UniProt Q96RR4, whole entry, looked up: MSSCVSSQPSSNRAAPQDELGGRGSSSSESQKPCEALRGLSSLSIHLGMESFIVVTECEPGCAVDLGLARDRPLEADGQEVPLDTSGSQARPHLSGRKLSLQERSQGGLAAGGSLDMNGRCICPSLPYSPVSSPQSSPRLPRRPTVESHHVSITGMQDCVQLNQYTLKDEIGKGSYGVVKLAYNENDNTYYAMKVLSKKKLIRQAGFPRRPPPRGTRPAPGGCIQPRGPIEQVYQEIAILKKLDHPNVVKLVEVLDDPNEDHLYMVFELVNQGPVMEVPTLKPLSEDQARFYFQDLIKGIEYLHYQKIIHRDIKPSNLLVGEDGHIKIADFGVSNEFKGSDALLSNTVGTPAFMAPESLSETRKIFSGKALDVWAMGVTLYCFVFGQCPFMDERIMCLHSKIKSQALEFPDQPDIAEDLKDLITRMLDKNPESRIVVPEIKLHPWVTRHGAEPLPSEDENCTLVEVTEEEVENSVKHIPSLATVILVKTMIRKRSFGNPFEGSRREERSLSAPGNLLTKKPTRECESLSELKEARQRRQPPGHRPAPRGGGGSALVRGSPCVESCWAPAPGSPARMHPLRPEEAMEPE
UniProt Q8WVQ1: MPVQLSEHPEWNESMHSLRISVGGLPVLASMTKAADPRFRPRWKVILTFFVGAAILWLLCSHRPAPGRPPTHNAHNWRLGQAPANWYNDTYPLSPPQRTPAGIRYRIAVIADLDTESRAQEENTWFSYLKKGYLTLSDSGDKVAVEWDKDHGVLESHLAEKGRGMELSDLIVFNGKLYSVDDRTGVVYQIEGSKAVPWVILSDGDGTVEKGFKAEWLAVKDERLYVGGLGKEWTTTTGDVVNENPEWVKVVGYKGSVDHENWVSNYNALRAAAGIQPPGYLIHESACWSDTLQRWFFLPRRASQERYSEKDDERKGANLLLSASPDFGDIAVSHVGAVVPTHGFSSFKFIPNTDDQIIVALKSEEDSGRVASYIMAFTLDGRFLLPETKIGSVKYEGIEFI
UniProt Q8WUQ7: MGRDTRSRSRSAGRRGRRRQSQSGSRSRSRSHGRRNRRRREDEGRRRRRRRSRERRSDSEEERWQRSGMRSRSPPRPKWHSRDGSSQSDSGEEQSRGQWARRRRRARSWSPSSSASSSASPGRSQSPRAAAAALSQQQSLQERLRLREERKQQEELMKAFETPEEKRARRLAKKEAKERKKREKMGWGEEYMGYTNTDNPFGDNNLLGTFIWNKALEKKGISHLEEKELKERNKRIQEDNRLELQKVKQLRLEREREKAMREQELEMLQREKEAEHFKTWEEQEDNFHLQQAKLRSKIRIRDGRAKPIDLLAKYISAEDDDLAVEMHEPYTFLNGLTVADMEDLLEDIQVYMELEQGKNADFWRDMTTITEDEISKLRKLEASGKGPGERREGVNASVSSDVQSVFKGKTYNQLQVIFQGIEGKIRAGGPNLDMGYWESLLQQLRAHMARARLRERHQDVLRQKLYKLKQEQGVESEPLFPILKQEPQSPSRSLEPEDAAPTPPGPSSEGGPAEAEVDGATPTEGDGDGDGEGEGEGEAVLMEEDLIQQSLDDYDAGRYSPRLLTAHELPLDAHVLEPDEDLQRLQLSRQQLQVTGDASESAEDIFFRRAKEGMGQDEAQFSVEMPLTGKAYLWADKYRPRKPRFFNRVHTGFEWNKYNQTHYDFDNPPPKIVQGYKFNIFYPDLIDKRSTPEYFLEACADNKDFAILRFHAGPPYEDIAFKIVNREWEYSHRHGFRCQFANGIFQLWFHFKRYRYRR
UniProt P40121: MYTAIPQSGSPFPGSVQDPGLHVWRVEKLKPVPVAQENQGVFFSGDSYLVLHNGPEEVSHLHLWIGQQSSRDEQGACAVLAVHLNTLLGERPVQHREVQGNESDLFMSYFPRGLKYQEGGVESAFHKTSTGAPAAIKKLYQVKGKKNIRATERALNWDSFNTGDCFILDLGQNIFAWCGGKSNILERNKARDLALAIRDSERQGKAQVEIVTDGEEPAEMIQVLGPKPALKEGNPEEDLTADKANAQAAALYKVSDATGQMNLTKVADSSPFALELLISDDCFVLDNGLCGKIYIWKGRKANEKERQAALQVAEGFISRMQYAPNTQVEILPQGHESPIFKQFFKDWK
UniProt Q96N11, whole entry, looked up: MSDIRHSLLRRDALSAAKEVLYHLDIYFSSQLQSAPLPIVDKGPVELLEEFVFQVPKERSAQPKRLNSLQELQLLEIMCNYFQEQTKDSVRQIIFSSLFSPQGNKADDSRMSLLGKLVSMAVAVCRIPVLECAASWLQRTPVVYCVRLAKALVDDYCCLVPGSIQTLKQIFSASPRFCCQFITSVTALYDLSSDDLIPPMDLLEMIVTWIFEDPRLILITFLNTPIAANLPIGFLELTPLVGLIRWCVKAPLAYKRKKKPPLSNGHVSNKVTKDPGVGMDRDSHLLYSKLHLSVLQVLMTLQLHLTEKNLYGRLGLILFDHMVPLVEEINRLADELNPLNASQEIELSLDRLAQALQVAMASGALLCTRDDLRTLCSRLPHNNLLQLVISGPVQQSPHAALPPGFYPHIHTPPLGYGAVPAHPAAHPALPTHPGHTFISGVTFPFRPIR
UniProt Q9NSG2: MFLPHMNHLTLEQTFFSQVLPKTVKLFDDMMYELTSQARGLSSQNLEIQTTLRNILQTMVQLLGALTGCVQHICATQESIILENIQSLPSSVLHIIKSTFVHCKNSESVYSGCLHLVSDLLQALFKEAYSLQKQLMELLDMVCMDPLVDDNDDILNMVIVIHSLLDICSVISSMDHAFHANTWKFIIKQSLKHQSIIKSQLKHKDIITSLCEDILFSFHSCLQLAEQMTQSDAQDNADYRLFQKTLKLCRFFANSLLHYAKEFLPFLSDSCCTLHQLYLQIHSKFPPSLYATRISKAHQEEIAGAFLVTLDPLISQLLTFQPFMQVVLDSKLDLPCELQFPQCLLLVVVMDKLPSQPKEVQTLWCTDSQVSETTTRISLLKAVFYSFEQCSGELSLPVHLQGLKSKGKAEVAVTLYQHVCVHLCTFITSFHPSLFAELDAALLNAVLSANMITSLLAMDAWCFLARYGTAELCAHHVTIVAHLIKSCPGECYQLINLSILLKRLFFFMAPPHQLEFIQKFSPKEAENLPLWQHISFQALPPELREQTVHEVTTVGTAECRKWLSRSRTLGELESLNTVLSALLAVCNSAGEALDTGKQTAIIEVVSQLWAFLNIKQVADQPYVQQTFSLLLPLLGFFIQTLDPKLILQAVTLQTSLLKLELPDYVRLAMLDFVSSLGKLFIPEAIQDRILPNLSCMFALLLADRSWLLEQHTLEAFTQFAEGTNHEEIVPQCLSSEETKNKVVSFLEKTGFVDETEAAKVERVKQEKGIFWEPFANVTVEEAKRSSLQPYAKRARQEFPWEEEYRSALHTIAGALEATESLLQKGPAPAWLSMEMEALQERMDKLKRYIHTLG
UniProt Q49AR2: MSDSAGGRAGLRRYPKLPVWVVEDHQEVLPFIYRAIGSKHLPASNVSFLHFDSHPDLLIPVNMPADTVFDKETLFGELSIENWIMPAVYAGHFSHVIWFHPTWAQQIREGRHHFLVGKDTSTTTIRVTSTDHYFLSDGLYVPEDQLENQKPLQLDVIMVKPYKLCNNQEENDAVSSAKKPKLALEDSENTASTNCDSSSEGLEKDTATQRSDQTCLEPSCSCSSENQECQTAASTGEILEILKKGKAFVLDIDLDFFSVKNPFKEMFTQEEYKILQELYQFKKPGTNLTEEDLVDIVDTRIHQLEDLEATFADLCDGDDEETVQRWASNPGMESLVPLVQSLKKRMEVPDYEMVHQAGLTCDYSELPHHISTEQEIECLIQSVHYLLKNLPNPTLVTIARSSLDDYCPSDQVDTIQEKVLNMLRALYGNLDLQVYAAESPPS
UniProt Q9H7E9: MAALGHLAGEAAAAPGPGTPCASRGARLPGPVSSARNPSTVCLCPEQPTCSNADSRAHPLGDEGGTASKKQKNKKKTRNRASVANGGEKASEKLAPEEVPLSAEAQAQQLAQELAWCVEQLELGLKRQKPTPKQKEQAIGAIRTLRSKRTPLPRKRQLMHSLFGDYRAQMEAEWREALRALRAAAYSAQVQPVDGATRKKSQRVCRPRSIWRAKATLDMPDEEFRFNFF
UniProt Q9HB71, whole entry, looked up: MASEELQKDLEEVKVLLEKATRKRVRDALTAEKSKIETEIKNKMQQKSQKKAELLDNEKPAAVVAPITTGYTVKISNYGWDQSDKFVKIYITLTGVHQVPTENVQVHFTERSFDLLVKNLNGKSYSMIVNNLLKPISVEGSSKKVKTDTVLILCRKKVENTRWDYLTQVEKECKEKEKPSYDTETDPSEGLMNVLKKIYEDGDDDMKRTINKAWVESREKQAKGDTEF
UniProt Q86VP6: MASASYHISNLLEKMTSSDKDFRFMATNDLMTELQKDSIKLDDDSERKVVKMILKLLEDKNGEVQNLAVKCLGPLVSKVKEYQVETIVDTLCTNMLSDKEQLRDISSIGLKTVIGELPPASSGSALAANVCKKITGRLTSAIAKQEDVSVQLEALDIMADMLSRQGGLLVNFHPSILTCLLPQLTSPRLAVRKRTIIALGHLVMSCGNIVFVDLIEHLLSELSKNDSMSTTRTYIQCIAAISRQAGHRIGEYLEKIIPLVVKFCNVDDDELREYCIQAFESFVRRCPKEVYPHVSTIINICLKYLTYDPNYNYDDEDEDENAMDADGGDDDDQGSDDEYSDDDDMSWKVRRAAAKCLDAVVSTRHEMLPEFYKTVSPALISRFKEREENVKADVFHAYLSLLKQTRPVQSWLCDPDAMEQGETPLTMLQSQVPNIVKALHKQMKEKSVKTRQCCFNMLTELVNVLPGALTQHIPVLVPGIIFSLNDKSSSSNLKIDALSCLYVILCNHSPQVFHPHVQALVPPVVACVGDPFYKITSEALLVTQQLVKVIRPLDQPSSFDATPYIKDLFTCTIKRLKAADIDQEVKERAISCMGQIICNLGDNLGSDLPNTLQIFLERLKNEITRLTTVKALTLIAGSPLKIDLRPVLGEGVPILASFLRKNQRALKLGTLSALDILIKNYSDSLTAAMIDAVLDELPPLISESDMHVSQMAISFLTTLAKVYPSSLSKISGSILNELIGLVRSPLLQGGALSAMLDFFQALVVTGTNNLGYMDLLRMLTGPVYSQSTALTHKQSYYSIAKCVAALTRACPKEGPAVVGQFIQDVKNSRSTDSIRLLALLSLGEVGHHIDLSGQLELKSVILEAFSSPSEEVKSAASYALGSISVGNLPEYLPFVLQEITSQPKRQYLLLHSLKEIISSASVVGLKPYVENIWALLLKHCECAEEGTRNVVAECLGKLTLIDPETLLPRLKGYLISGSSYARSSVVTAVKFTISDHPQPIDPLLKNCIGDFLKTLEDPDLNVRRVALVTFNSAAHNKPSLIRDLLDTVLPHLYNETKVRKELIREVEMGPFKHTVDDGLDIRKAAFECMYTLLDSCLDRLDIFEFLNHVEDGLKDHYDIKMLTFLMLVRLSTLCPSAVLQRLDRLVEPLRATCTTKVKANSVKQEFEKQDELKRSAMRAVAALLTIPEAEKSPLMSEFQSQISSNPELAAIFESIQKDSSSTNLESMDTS
UniProt Q9H425: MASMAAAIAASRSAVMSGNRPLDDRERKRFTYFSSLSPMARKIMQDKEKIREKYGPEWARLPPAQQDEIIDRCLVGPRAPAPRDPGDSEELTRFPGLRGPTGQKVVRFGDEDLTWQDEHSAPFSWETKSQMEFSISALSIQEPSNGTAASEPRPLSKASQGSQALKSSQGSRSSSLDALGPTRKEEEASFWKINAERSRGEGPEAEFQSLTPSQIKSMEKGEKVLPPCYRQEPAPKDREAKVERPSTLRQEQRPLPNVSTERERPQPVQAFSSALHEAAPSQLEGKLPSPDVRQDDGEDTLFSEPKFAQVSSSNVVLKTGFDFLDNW
UniProt P04632: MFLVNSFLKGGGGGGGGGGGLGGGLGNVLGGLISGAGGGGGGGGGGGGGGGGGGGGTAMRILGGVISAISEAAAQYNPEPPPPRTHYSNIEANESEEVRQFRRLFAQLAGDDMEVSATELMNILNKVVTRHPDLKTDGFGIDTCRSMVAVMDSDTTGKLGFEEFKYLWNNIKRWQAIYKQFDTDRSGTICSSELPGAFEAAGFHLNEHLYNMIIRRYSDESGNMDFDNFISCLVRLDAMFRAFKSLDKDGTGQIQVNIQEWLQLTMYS
UniProt Q2NKX9: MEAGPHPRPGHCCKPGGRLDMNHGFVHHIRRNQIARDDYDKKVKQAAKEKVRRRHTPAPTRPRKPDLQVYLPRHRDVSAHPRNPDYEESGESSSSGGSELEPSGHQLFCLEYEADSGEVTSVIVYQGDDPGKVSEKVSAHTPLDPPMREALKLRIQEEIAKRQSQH
UniProt Q96NL8: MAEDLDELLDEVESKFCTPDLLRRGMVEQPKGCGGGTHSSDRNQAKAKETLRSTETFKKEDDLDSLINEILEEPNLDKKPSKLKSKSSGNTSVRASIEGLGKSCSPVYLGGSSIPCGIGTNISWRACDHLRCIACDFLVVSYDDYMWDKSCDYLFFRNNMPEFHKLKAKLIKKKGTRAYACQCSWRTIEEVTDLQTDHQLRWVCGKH

Key:
Test in all cases: log2 fold change, soluble protein after heating vs DMSO (PISA); higher = thermal stabilisation; K562 lysate, 10 uM; active = over 0.2 and 3.5 SD of the protein, either way, in both replicates (recomputed)
[1] = compound: C1=CC=C(C=C1)[C@H](COC2=CC3=C(C=C2)NC(=O)N3)NC(=O)C4=CC=CN(C4=O)CC5=CC(=C(C=C5)F)F
Procedure, shortened: (§1)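 Following dounce homogenisation of K562 pellets in PBS pH 7.4 with 1 mM MgCl2, crude extract at 1 mg/mL protein was incubated for 30 min with 10 μM compound. Aliquots were then heated for 3 min over 48°C-58°C and pooled, NP-40 was added to 0.5% at 4°C, and soluble protein was recovered as the supernatant at 21,000xg for 90 min. Channel-sum-equalised TMTpro 16plex LC-MS/MS quantified this protein. Each value, from duplicates, is a log-two fold change in thermal stability relative to solvent controls.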

[2] = compound: CC1=C(SC2=C1C(=N[C@H](C3=NN=C(N32)C)CC(=O)N)C4=CC=C(C=C4)Cl)C
Procedure, shortened: as §1

[3] = compound: CC1=C2C(=CC=C1)N=C(N(C2=O)C3=CC=CC=C3C)CN4C=NC5=C(N=CN=C54)N
Procedure, shortened: as §1

[4] = compound: Cc1sc2c(c1C)C(c1ccc(Cl)cc1)=N[C@@H](CC(=O)OC(C)(C)C)c1nnc(C)n1-2
Procedure, shortened: as §1

[5] = compound: c1ccc([C@@H]2C[C@H]2NC2CCNCC2)cc1
Procedure, shortened: as §1

Measured: log2 fold change

C12orf4 (UniProt Q9NQ89)
inactive: [1] 0.281 | [2] 0.059

CAMKK2 (UniProt Q96RR4)
inactive: [1] 0.002 | [2] -0.047 | [3] 0.072 | [4] 0.051 | [5] -0.013

CA1 (UniProt P00915)
inactive: [1] 0.016 | [2] 0.001 | [3] 0.02 | [4] -0.01 | [5] -0.054

CANT1 (UniProt Q8WVQ1)
inactive: [1] 0.013 | [2] -0.021 | [3] -0.003 | [4] 0.011 | [5] 0.012

C6orf47 (UniProt O95873)
inactive: [1] -0.009 | [2] 0.037 | [3] -0.024 | [4] -0.088 | [5] -0.055

CAPNS1 (UniProt U3KPR7)
inactive: [1] 0.019 | [2] 0.122

CACTIN isoform 2 (UniProt Q8WUQ7)
inactive: [1] 0.015 | [2] 0.023 | [3] -0.04 | [4] 0.024 | [5] 0.066

CAPG (UniProt P40121)
inactive: [1] 0.013 | [2] 0.004 | [3] 0.022 | [4] -0.033 | [5] 0.008

CAPN7 (UniProt Q9Y6W3)
inactive: [1] 0.008 | [2] -0.015 | [3] -0.018 | [4] -0.01 | [5] 0.04

C16orf70 (UniProt Q9BSU1)
inactive: [1] -0.007 | [2] -0.073 | [3] -0.071 | [4] 0.033

C7orf26 (UniProt Q96N11)
inactive: [1] -0.131 | [2] 0.153 | [3] 0.138 | [4] -0.031 | [5] 0.028

C1orf112 (UniProt Q9NSG2)
inactive: [1] 0.066 | [2] -0.011 | [3] -0.007 | [4] 0.066 | [5] -0.345

C5orf22 (UniProt Q49AR2)
inactive: [1] 0.031 | [2] -0.034 | [3] 0.016 | [4] -0.02 | [5] -0.005

C8orf33 isoform 2 (UniProt Q9H7E9)
inactive: [1] 0 | [2] 0.008 | [3] -0.017 | [4] 0.007 | [5] -0.004

CAMSAP1 isoform 3 (UniProt Q5T5Y3)
inactive: [1] -0.012 | [2] -0.006 | [3] 0.022 | [4] 0.019 | [5] 0.082

CACYBP (UniProt Q9HB71)
inactive: [1] 0.024 | [2] 0.002 | [3] -0.027 | [4] -0.003 | [5] -0.029

CAND1 (UniProt Q86VP6)
inactive: [1] 0.024 | [2] 0.006 | [3] 0.012 | [4] -0.01 | [5] -0.081

C1orf198 (UniProt Q9H425)
inactive: [1] 0.093 | [2] -0.028 | [3] 0.055 | [4] 0.062 | [5] -0.109

Five successive records out of the list so far:
C5orf22 (UniProt Q49AR2)
inactive: [1] 0.031 | [2] -0.034 | [3] 0.016 | [4] -0.02 | [5] -0.005

C8orf33 isoform 2 (UniProt Q9H7E9)
inactive: [1] 0 | [2] 0.008 | [3] -0.017 | [4] 0.007 | [5] -0.004

CAMSAP1 isoform 3 (UniProt Q5T5Y3)
inactive: [1] -0.012 | [2] -0.006 | [3] 0.022 | [4] 0.019 | [5] 0.082

CACYBP (UniProt Q9HB71)
inactive: [1] 0.024 | [2] 0.002 | [3] -0.027 | [4] -0.003 | [5] -0.029

CAND1 (UniProt Q86VP6)
inactive: [1] 0.024 | [2] 0.006 | [3] 0.012 | [4] -0.01 | [5] -0.081

More results:

CAMK1 (UniProt Q14012)
inactive: [1] 0.096 | [2] 0.014 | [3] -0.007 | [4] 0.026 | [5] -0.047

CA2 (UniProt P00918)
inactive: [1] -0.058 | [2] 0.013 | [3] -0.064 | [4] -0.224

CAPNS1 (UniProt P04632)
inactive: [1] 0 | [2] -0.041 | [3] -0.067 | [4] 0.057 | [5] -0.014

C2orf68 (UniProt Q2NKX9)
inactive: [1] 0.09 | [2] 0.044 | [3] -0.055 | [4] 0.042 | [5] 0.01

C2CD2L (UniProt O14523)
inactive: [1] -0.041 | [2] 0.073 | [3] 0.155 | [4] -0.039 | [5] -0.02

CAND2 (UniProt O75155)
inactive: [1] 0.01 | [2] 0.004 | [3] 0.018 | [4] 0.002 | [5] 0.042

C8orf37 (UniProt Q96NL8)
inactive: [1] 0.072 | [2] -0.08 | [3] -0.094 | [4] -0.008 | [5] 0.141
